Source: PubChem BioAssay AID504784 (Drosophila RNAi Screening Center, 2011)

Screen: 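Genome-wide knock-down for genes giving too much or too little stored lipid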 (primary screen)
Cells: Drosophila Kc167 embryonic cells
Knock-down reagent: long dsRNA against Drosophila genes, about 250 ng dsRNA per well
Time to read-out: 4 days
Treatment: cells fed 400 µM oleic acid bound to BSA
Detection: 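Cells imaged and segmented; ratio of lipid droplet area to nuclear area, log-transformed, then normalised as a B-score over the screen; higher means more stored lipid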
Scale: droplet/nuclear area B-score: higher = more stored lipid (overstorage)
The screen tested about 17,000 reagents; below is an unselected part of those that have a named target and a result. 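Each column is one replicate's B-score; the combined score over replicates was not deposited, so single values may mislead.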 A plus sign joins genes that one reagent is predicted to hit. Further read-outs or replicates are left out here. Reagent sequences are not shown.

CG5342 (GeneID 41389) [DRSC15776] scored droplet/nuclear area B-score, replicate 1 = 0.213.
With knock-down of DJ-1alpha (GeneID 36543) [DRSC07005], the screen gave droplet/nuclear area B-score, replicate 1 = -0.0994.
Knock-down of Atg1 (GeneID 39454) [DRSC09809] came out at: droplet/nuclear area B-score, replicate 1 = 0.285.
After knock-down of Atg1 (GeneID 39454) [DRSC09810] the results were droplet/nuclear area B-score, replicate 1 = 0.407.
Silencing of l(3)76BDm (GeneID 40140) [DRSC11047] came out at: droplet/nuclear area B-score, replicate 1 = 2.16.
Knock-down of kek1 (GeneID 34688) [DRSC03551] came out at: droplet/nuclear area B-score, replicate 1 = -0.405.
Hel89B (GeneID 41943) [DRSC16700] gave droplet/nuclear area B-score, replicate 1 = -0.772.
For Hel89B (GeneID 41943) [DRSC21575] the deposit lists droplet/nuclear area B-score, replicate 1 = 1.74.
CG6277 (GeneID 43251) [DRSC16008] gave droplet/nuclear area B-score, replicate 1 = 0.256.
After knock-down of CG15517 (GeneID 43537) [DRSC15056], the screen gave droplet/nuclear area B-score, replicate 1 = -1.07.
CG32189 (GeneID 317902) [DRSC09511] showed droplet/nuclear area B-score, replicate 1 = -0.236.
Drsl4 (GeneID 317954) [DRSC08034] showed droplet/nuclear area B-score, replicate 1 = 0.186.
Against Kua (GeneID 35300) [DRSC02100], the values are droplet/nuclear area B-score, replicate 1 = -0.417.
With knock-down of CG5961 (GeneID 41541) [DRSC15927] the results were droplet/nuclear area B-score, replicate 1 = -0.161.
Against His1:CG33816 + His1:CG33828 + His1:CG33819 + 21 more [DRSC21266] the deposit lists droplet/nuclear area B-score, replicate 1 = -0.107.

Reformatted: results already given.
{"target": "Hel89B (GeneID 41943)", "amplicon": "DRSC16700", "droplet/nuclear area B-score, replicate 1": -0.772}
{"target": "Hel89B (GeneID 41943)", "amplicon": "DRSC21575", "droplet/nuclear area B-score, replicate 1": 1.74}
{"target": "CG6277 (GeneID 43251)", "amplicon": "DRSC16008", "droplet/nuclear area B-score, replicate 1": 0.256}
{"target": "CG15517 (GeneID 43537)", "amplicon": "DRSC15056", "droplet/nuclear area B-score, replicate 1": -1.07}
{"target": "CG32189 (GeneID 317902)", "amplicon": "DRSC09511", "droplet/nuclear area B-score, replicate 1": -0.236}
{"target": "Drsl4 (GeneID 317954)", "amplicon": "DRSC08034", "droplet/nuclear area B-score, replicate 1": 0.186}
{"target": "Kua (GeneID 35300)", "amplicon": "DRSC02100", "droplet/nuclear area B-score, replicate 1": -0.417}

Further reagents:
Against wuc (GeneID 36401) [DRSC06152], the values are droplet/nuclear area B-score, replicate 1 = -0.571.
With knock-down of CG3698 (GeneID 40298) [DRSC11749], the screen gave droplet/nuclear area B-score, replicate 1 = 1.86.
Knock-down of Mondo (GeneID 35402) [DRSC02667] gave: droplet/nuclear area B-score, replicate 1 = -0.0722.
Depletion of Mondo (GeneID 35402) [DRSC02668] resulted in: droplet/nuclear area B-score, replicate 1 = 0.763.
Mondo (GeneID 35402) [DRSC22006] scored droplet/nuclear area B-score, replicate 1 = -0.0245.
Against CG15734 (GeneID 32177) [DRSC19701], the entry reads droplet/nuclear area B-score, replicate 1 = -0.00562.
With knock-down of Taf12 (GeneID 41406) [DRSC16879], the screen gave droplet/nuclear area B-score, replicate 1 = 8.02.
Muc68E (GeneID 2768990) [DRSC09146] showed droplet/nuclear area B-score, replicate 1 = -0.674.
Against CG11382 (GeneID 31069) [DRSC18624] the deposit lists droplet/nuclear area B-score, replicate 1 = -1.12.
CG15754 (GeneID 32307) [DRSC19719] scored droplet/nuclear area B-score, replicate 1 = -2.71.
After knock-down of Clp (GeneID 33259) [DRSC00746] the results were droplet/nuclear area B-score, replicate 1 = -0.16.
After knock-down of Csk (GeneID 41398) [DRSC12861] the results were droplet/nuclear area B-score, replicate 1 = -0.482.
For Csk (GeneID 41398) [DRSC15223] the deposit lists droplet/nuclear area B-score, replicate 1 = -3.83.
For Csk (GeneID 41398) [DRSC23272], the entry reads droplet/nuclear area B-score, replicate 1 = -0.0816.
After knock-down of Acbp2 (GeneID 38784) [DRSC11141], the record shows droplet/nuclear area B-score, replicate 1 = 1.24.
With knock-down of CG7173 (GeneID 40392) [DRSC11812], the record shows droplet/nuclear area B-score, replicate 1 = 0.997.
Knock-down of CG7173 (GeneID 40392) [DRSC23252] came out at: droplet/nuclear area B-score, replicate 1 = -0.729.
After knock-down of CG1317 (GeneID 38300) [DRSC08305] the results were droplet/nuclear area B-score, replicate 1 = -1.13.
Against CG6583 (GeneID 34645) [DRSC02972] the deposit lists droplet/nuclear area B-score, replicate 1 = -0.0398.
Against CG42399 (GeneID 33176) [DRSC00322], the values are droplet/nuclear area B-score, replicate 1 = 1.92.
With knock-down of CG42399 (GeneID 33176) [DRSC00661] the results were droplet/nuclear area B-score, replicate 1 = 0.182.
After knock-down of Neos (GeneID 38795) [DRSC11235] the results were droplet/nuclear area B-score, replicate 1 = 0.547.
CG32107 (GeneID 317856) [DRSC09221] showed droplet/nuclear area B-score, replicate 1 = 0.55.
CG32806 (GeneID 318220) [DRSC21699] showed droplet/nuclear area B-score, replicate 1 = 1.1.
CG14418 (GeneID 31275) [DRSC18637] scored droplet/nuclear area B-score, replicate 1 = 1.5.
With knock-down of CG14418 (GeneID 31275) [DRSC23051], the record shows droplet/nuclear area B-score, replicate 1 = 1.28.
